Data on 2 substances can be found in paper PMC9909323.

Chains of the proteins cited; added tags and fusions are not shown.
UniProt Q14247: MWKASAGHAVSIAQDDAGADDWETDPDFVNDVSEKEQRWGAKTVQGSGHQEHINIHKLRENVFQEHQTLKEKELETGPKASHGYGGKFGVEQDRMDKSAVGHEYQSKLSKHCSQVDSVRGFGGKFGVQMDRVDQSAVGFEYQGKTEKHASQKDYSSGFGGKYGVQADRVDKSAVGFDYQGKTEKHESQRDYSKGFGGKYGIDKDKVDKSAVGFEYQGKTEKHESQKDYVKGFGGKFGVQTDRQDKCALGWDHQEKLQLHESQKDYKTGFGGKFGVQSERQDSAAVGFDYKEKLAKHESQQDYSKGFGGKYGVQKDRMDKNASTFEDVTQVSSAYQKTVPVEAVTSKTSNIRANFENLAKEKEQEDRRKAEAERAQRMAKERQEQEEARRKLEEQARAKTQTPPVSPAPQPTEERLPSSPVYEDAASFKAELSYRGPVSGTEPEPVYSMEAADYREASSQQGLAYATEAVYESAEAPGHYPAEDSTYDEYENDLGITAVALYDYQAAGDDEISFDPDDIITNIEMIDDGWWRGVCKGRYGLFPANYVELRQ
UniProt P68871: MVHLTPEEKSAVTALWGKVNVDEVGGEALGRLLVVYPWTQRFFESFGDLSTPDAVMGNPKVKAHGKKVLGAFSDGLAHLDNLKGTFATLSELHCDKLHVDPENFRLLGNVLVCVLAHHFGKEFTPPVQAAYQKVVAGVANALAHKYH

The assay deals with T1, CDKN2A interacting protein (CDKN2AIP) (UniProt Q9NXV6).
T1 sequence: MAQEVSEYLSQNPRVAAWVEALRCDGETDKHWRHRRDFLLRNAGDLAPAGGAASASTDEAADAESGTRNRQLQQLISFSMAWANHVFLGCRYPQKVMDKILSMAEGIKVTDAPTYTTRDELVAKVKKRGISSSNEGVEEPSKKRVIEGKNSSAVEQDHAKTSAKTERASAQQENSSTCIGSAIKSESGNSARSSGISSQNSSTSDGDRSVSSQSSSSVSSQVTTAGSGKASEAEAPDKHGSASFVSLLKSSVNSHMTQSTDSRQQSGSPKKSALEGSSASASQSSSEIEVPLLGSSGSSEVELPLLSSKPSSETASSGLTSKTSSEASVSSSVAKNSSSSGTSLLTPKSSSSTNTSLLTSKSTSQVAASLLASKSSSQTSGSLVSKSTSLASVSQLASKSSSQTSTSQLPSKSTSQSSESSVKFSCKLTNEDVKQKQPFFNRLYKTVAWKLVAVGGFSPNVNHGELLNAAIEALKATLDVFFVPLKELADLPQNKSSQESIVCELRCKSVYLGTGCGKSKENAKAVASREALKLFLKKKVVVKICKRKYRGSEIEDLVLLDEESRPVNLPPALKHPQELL
Briefly: affinity purification with mass spectrometry; IP-MS in NTERA-2 cells transfected with tagged CDKN2AIP/CARM1; lysis in 20 mM Tris-HCl pH 7.4, 150 mM NaCl, 1 mM EDTA, 1% NP-40; anti-CDKN2AIP antibody or control IgG at 4°C overnight, protein A/G magnetic beads; SDS-PAGE, then mass spectrometry.

No constants are given. Whether binding was seen depends on the method and setting. In cells and extracts the contact can be indirect. Here binding means that the protein was enriched with, or labelled near, the bait; the list need not be complete.

Regarding CTTN (from UniProt Q14247 1-550), the binding entry is given as “binds”.

HBB (from UniProt P68871 1-147): the binding entry is listed as “binds”.
